Measurements reported in PubChem BioAssay AID1159584 (Peter MacCallum Cancer Centre, 2016)
Purpose: 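Knock-downs that harm CDH1-null cells more than parental MCF10A cells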 (primary screen). System: human MCF10A breast epithelial cells, parental and CDH1-null. Reagent: siRNA against human genes. Measurement: 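Cell viability by CellTiter-Glo ATP luminescence, each line scaled to the mean of mock wells across plates, then CDH1-null over parental ratio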. Direction: CDH1-null / parental viability ratio: higher = CDH1-null cells survive relatively better than parental.
In all, the deposit lists about 18,000 reagents; below is an unselected part. Not all columns of the deposit are shown. Reagent sequences are not shown. The record does not give: the amount of reagent, the time to read-out.

gene knocked down | CDH1-null / parental viability ratio
DERL3 (GeneID 91319) | 1.13
CHST4 (GeneID 10164) | 0.91
ESX1 (GeneID 80712) | 0.86
CARD19 (GeneID 84270) | 0.75
PIK3C2G (GeneID 5288) | 1.15
HSPB3 (GeneID 8988) | 1.06
CETN3 (GeneID 1070) | 0.67
SIX4 (GeneID 51804) | 0.82
PRR25 (GeneID 388199) | 0.84
ZFPM1 (GeneID 161882) | 1.19
STARD10 (GeneID 10809) | 1.47
SAP30L (GeneID 79685) | 0.8
DBX2 (GeneID 440097) | 1
LAT (GeneID 27040) | 1.35
ARHGAP22 (GeneID 58504) | 1.12
IKBKG (GeneID 8517) | 0.92
ZNF286A (GeneID 57335) | 0.91
PPFIA4 (GeneID 8497) | 1.36
LSP1 (GeneID 4046) | 1.33
JPT1 (GeneID 51155) | 1.16
TRAM1 (GeneID 23471) | 1.12
SYNJ2 (GeneID 8871) | 1.23
ENOSF1 (GeneID 55556) | 0.8
RFNG (GeneID 5986) | 1.03
FAM76A (GeneID 199870) | 0.94
ASPSCR1 (GeneID 79058) | 0.69
ERMN (GeneID 57471) | 1.44
SFPQ (GeneID 6421) | 0.96
CHPF2 (GeneID 54480) | 1.16
SLC28A3 (GeneID 64078) | 0.97
PSORS1C2 (GeneID 170680) | 1.2
CX3CR1 (GeneID 1524) | 0.62
SZRD1 (GeneID 26099) | 0.87
LYZL2 (GeneID 119180) | 0.93
PRR20A (GeneID 122183) | 1.09
SNAI1 (GeneID 6615) | 1.07
TBC1D9 (GeneID 23158) | 0.75
LRRC45 (GeneID 201255) | 0.74
ADCY8 (GeneID 114) | 1.02
GEMIN7 (GeneID 79760) | 0.81
MSMP (GeneID 692094) | 1.5
ARL14EP (GeneID 120534) | 0.97
OR8J3 (GeneID 81168) | 0.67

13 entries already listed, sorted by “CDH1-null / parental viability ratio”, lowest first.
gene knocked down | CDH1-null / parental viability ratio
ASPSCR1 (GeneID 79058) | 0.69
ENOSF1 (GeneID 55556) | 0.8
ZNF286A (GeneID 57335) | 0.91
IKBKG (GeneID 8517) | 0.92
FAM76A (GeneID 199870) | 0.94
RFNG (GeneID 5986) | 1.03
ARHGAP22 (GeneID 58504) | 1.12
TRAM1 (GeneID 23471) | 1.12
JPT1 (GeneID 51155) | 1.16
SYNJ2 (GeneID 8871) | 1.23
LSP1 (GeneID 4046) | 1.33
LAT (GeneID 27040) | 1.35
PPFIA4 (GeneID 8497) | 1.36

Continued:
gene knocked down | CDH1-null / parental viability ratio
CT47A5 (GeneID 728072) | 0.89
LAPTM4B (GeneID 55353) | 1
PIK3R2 (GeneID 5296) | 1.02
HCRT (GeneID 3060) | 1.11
OR8B12 (GeneID 219858) | 0.96
IGFN1 (GeneID 91156) | 0.88
EXOSC9 (GeneID 5393) | 1.04
PRPF3 (GeneID 9129) | 1.4
MED16 (GeneID 10025) | 0.79
NCF4 (GeneID 4689) | 0.88
NDRG1 (GeneID 10397) | 0.96
STARD3 (GeneID 10948) | 1.07
SLC60A2 (GeneID 91749) | 0.77
ZNF14 (GeneID 7561) | 1.03
PNPLA1 (GeneID 285848) | 1.12
RBM39 (GeneID 9584) | 0.68
SEMA4G (GeneID 57715) | 1.22
ZEB1 (GeneID 6935) | 1
SPDEF (GeneID 25803) | 1.06
NUDT4 (GeneID 11163) | 1.29
PDCD2 (GeneID 5134) | 0.69
SLC37A2 (GeneID 219855) | 0.92
LZIC (GeneID 84328) | 1.18
RIMOC1 (GeneID 285636) | 1.03
CCL28 (GeneID 56477) | 1.06
KRTAP5-3 (GeneID 387266) | 1.04
AKR1B15 (GeneID 441282) | 1.15
VTA1 (GeneID 51534) | 0.99
GIMAP5 (GeneID 55340) | 0.94
ACVR2A (GeneID 92) | 1.32
FCRLB (GeneID 127943) | 0.94
ACACB (GeneID 32) | 1.03
WDR36 (GeneID 134430) | 1.19
ALPG (GeneID 251) | 1.26
RAET1L (GeneID 154064) | 0.73
AMY1C (GeneID 278) | 1.25
ADGRA1 (GeneID 84435) | 1.3
ITPRID1 (GeneID 223075) | 1.15
PZP (GeneID 5858) | 0.98
SPAG11A (GeneID 653423) | 0.94
PLAAT5 (GeneID 117245) | 0.96
OR1J1 (GeneID 347168) | 1.25
SMIM11 (GeneID 54065) | 1.16
GUCY2EP (GeneID 390226) | 1.04
